Taken from: PubChem BioAssay AID743454 (Peter MacCallum Cancer Centre, 2014)
Purpose: 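Search for knock-downs that restore vorinostat killing in resistant colon cancer cells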 (primary screen). Cell system: human HCT116-VR colon cancer cells, selected for vorinostat resistance. Knock-down reagent: siRNA pool against human genes, 40 nM siRNA pool. Timing: vorinostat for 24 h, read-out about 72 h after transfection. Challenge: vorinostat at 2.5 µM final. Measurement: 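Two measures, CellTiter-Fluor viability and luminescent caspase 3/7 activity, each as fold change against same-plate mock wells, mean of duplicates, then screen-wide robust z-score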. Direction: viability robust z-score: higher = more viable cells than screen typical; caspase robust z-score: higher = more caspase 3/7 activity than screen typical. Active means: 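a knock-down is a hit when classed RV1 or RV2 for lowered viability, or CA1 or CA2 for caspase activation; those lethal without drug were dropped; hits were retested singly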.
In all, the deposit lists about 18,000 reagents; below is a part drawn at random. Of all reagents, 450 (2.5%) got an active call. 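Single biological run; no consistent viability z cut-off exists, so the class columns, not z-scores, define the calls.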

Target gene | viability hit class | caspase hit class | viability robust z-score | caspase robust z-score | outcome
SLC12A3 | no change | no change | 0.84 | -0.64 | inactive
KIF7 | no change | no change | 0.3 | 0.08 | inactive
BIRC6 | no change | no change | 0.22 | -0.88 | inactive
ZFP42 | no change | no change | -0.48 | -0.3 | inactive
NAT9 | no change | no change | 0.04 | -0.12 | inactive
IAH1 | no change | no change | -0.64 | -0.86 | inactive
SHB | no change | no change | -0.11 | -0.49 | inactive
NKX2-1 | RV2 (reduced viability) | CA2 (caspase activation) | -2.95 | 6.64 | active
DGKE | no change | no change | -2.27 | 1.76 | inactive
STAG3L3 | no change | no change | -0.5 | -0.76 | inactive
GNRH2 | no change | no change | 0.36 | -0.7 | inactive
SERTAD3 | no change | no change | -0.36 | 0.67 | inactive
CEP85L | no change | no change | 0.32 | -0.22 | inactive
POU3F4 | no change | no change | -0.04 | 1.27 | inactive
DHX8 | no change | no change | -1.99 | -1.19 | inactive
DPYSL4 | no change | no change | 0.56 | 0.04 | inactive
STK10 | no change | no change | 0.34 | 0.66 | inactive
SLC10A4 | no change | no change | 0.58 | 1.69 | inactive
ZNF514 | no change | no change | 0.54 | 1.16 | inactive
NT5C3A | no change | no change | 0.76 | -0.96 | inactive
METTL5 | no change | no change | 1.34 | -0.36 | inactive
ELAPOR2 | no change | no change | -0.32 | -0.63 | inactive
GNL1 | no change | no change | 0.36 | 1.48 | inactive
IHO1 | no change | no change | 0.5 | 0.7 | inactive
ALPI | no change | no change | -0.74 | 4.08 | inactive
DSCR10 | no change | no change | -0.02 | -0.64 | inactive
MDM4 | no change | no change | 0.16 | -1 | inactive
SEC61B | no change | CA2 (caspase activation) | -2.84 | 5.52 | active
DOP1A | no change | no change | 0.2 | 0.06 | inactive
NSUN6 | no change | no change | 0.51 | -1.61 | inactive

Ordered by “viability robust z-score” (highest first): 9 of the entries above
Target gene | viability hit class | caspase hit class | viability robust z-score | caspase robust z-score | outcome
METTL5 | no change | no change | 1.34 | -0.36 | inactive
NT5C3A | no change | no change | 0.76 | -0.96 | inactive
SLC10A4 | no change | no change | 0.58 | 1.69 | inactive
ZNF514 | no change | no change | 0.54 | 1.16 | inactive
IHO1 | no change | no change | 0.5 | 0.7 | inactive
GNL1 | no change | no change | 0.36 | 1.48 | inactive
DSCR10 | no change | no change | -0.02 | -0.64 | inactive
ELAPOR2 | no change | no change | -0.32 | -0.63 | inactive
ALPI | no change | no change | -0.74 | 4.08 | inactive

Additional results:
Target gene | viability hit class | caspase hit class | viability robust z-score | caspase robust z-score | outcome
TAP1 | no change | no change | -1.02 | -0.7 | inactive
GRID1 | no change | no change | -0.42 | -0.54 | inactive
SLC6A4 | no change | no change | -0.74 | -0.14 | inactive
OTX1 | no change | no change | 0.82 | 1.38 | inactive
ACSM3 | no change | no change | -0.04 | -0.65 | inactive
VPS9D1 | no change | no change | 0.34 | -0.97 | inactive
ABO | no change | no change | 0.26 | -0.3 | inactive
MED13 | no change | no change | 0.23 | -0.29 | inactive
PEG10 | no change | no change | -0.07 | -0.38 | inactive
TRMT112 | no change | no change | -0.25 | -0.86 | inactive
SLC35G5 | no change | no change | -0.58 | 1.48 | inactive
PCED1A | no change | no change | -1.44 | -0.39 | inactive
C20orf96 | no change | no change | -1.71 | -0.1 | inactive
FER1L5 | no change | no change | 1.81 | -0.7 | inactive
LUZP4 | no change | no change | 0.64 | 3.45 | inactive
CLCA1 | no change | no change | -0.74 | 0.54 | inactive
PLA2G5 | no change | no change | 0.02 | 2.66 | inactive
HECTD4 | no change | no change | -0.32 | 0.68 | inactive
CLCN7 | no change | no change | -1.82 | 0.84 | inactive
RIC1 | no change | no change | -0.22 | 0.13 | inactive
CUL9 | no change | no change | 0.39 | 0.97 | inactive
CERS3 | no change | no change | -0.26 | -0.77 | inactive
OR7A17 | no change | no change | -1.01 | -0.33 | inactive
ASB11 | no change | no change | -1 | 0.73 | inactive
BCOR | no change | no change | 0.82 | 0.34 | inactive
DSG4 | no change | no change | 0.83 | 0.55 | inactive
CGN | no change | no change | -0.22 | -0.6 | inactive
DEUP1 | no change | no change | 1.4 | 0.13 | inactive
EML4 | no change | no change | 2.08 | -0.42 | inactive
FAXDC2 | no change | no change | 0.45 | -0.22 | inactive
VWA8 | no change | no change | 0.03 | -0.62 | inactive
LMO3 | no change | no change | 1.6 | -0.7 | inactive
ZNF17 | no change | no change | 1.09 | 1.55 | inactive
TNFAIP8 | no change | no change | 0 | -0.4 | inactive
ARPC5 | no change | no change | -1.52 | -1.09 | inactive
HP1BP3 | no change | no change | 1.19 | 0.32 | inactive
PDE6C | no change | no change | 1.1 | 0.54 | inactive
ACAP1 | no change | no change | 0.06 | 1.66 | inactive
MAGEA3 | no change | no change | 0.52 | -0.16 | inactive
COMP | no change | no change | -0.1 | -0.86 | inactive
UTY | no change | no change | -1.48 | -0.64 | inactive
NR0B2 | no change | no change | 0.78 | 0.64 | inactive
BIRC8 | no change | no change | 1.19 | -0.26 | inactive
